Assay results from publication PMC9908615.

Protein sequences, listed by entry. Tags and fused reporters are not part of them. Lines headed by an entry give the natural chain unless they say otherwise; changes in a name come on top.
UniProt Q7Z494: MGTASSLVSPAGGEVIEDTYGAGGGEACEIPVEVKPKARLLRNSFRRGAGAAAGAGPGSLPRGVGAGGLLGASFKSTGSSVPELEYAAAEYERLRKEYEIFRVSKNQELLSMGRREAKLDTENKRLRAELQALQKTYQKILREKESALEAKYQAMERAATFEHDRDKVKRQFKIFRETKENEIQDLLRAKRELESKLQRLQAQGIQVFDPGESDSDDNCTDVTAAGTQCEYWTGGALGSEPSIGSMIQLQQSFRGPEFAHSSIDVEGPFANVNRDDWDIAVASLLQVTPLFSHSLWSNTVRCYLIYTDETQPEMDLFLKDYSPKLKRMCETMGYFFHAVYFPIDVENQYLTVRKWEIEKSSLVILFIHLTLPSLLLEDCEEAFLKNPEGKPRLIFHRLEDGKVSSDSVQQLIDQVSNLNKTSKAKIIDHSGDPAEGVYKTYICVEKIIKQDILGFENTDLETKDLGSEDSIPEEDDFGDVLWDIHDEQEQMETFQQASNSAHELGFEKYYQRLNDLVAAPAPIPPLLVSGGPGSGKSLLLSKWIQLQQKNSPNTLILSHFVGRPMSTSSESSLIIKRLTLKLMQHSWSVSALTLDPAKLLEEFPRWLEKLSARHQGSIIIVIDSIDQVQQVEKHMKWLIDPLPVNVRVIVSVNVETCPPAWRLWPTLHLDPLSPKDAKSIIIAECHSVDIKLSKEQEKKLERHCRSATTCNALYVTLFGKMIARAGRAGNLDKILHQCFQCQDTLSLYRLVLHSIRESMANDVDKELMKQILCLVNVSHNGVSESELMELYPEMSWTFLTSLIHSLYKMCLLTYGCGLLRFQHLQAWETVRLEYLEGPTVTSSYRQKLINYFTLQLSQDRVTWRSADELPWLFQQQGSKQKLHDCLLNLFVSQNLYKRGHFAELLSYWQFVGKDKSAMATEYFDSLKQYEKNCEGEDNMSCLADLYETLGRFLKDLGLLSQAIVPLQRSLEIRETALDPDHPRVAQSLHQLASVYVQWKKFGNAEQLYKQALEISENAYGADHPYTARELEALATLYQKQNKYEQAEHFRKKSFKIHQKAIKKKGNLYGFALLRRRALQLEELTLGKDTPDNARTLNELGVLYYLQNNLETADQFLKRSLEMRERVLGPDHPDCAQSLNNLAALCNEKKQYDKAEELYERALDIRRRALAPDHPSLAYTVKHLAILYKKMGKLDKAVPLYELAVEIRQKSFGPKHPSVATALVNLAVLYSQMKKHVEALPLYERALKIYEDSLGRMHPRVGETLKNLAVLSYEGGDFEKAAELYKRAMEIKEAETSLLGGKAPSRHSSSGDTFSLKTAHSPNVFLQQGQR
UniProt Q9Z0R4: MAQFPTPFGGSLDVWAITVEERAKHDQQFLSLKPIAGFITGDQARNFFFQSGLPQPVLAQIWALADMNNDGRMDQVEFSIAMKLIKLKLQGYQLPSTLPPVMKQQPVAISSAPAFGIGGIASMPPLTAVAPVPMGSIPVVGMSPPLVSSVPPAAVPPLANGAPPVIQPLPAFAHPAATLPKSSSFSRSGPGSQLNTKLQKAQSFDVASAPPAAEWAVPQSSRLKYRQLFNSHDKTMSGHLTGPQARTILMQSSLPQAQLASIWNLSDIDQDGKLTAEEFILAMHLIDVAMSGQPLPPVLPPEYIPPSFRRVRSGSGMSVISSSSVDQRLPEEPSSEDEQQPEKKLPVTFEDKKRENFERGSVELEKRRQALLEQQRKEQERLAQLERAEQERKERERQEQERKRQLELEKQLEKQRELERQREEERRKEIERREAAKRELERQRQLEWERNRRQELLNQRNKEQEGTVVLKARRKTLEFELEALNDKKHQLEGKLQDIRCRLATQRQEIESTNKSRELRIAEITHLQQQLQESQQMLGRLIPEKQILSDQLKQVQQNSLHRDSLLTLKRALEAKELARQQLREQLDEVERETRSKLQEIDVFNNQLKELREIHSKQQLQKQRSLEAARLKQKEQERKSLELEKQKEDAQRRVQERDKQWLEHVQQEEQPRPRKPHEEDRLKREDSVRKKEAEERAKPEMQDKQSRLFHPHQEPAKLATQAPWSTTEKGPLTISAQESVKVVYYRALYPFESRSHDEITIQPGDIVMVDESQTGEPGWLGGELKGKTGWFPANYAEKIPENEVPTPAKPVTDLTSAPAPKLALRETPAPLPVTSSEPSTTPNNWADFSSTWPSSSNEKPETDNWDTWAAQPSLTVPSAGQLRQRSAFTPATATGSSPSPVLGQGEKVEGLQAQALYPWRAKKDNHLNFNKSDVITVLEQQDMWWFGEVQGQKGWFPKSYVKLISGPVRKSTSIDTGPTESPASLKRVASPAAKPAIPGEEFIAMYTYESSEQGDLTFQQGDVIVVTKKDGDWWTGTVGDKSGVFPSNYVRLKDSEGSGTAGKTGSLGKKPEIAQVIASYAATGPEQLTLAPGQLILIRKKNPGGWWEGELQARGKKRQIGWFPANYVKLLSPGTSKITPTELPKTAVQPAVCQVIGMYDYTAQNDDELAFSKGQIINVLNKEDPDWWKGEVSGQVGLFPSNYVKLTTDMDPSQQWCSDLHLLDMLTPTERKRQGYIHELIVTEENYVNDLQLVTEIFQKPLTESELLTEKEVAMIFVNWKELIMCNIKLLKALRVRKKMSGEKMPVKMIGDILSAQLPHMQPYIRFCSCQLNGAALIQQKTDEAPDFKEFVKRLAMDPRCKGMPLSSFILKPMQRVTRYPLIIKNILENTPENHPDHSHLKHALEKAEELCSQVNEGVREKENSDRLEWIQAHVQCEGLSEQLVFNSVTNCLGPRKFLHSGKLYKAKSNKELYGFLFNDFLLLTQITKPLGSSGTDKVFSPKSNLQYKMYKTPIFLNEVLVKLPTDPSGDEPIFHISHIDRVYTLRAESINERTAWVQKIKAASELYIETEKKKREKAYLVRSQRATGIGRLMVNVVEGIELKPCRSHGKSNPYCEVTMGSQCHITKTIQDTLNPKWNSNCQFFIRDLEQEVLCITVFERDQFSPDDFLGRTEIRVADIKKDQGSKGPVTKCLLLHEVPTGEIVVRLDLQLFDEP
UniProt P33215: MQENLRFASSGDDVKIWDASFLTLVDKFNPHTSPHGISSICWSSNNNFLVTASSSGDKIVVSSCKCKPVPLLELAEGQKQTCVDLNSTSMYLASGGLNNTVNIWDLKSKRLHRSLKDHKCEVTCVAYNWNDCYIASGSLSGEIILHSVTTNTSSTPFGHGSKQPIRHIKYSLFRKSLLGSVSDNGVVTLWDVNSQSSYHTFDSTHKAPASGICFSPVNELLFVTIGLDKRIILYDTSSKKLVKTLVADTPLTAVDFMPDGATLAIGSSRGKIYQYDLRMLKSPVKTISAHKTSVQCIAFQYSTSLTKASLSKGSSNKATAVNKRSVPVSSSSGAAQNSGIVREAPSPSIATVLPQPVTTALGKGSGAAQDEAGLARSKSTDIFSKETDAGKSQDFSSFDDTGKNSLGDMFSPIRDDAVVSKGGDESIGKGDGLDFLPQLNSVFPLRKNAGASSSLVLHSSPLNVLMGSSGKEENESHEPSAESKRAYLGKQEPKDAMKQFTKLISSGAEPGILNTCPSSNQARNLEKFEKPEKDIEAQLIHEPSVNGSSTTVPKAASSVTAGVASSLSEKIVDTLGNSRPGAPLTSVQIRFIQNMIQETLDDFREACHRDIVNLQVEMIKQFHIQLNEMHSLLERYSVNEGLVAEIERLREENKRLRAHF
UniProt O88746: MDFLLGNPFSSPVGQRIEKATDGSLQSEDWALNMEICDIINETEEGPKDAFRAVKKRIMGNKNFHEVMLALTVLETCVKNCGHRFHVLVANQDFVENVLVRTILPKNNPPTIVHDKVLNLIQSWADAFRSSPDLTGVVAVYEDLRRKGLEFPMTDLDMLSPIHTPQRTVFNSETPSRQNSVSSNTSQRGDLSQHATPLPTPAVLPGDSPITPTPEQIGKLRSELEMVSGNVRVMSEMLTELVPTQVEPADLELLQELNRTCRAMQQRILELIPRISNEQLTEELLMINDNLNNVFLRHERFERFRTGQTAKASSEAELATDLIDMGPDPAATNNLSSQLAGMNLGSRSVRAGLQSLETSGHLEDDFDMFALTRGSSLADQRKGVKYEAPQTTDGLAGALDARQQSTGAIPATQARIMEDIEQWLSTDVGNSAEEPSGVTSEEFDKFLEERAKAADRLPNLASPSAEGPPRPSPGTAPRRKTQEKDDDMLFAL
UniProt A2AUM9: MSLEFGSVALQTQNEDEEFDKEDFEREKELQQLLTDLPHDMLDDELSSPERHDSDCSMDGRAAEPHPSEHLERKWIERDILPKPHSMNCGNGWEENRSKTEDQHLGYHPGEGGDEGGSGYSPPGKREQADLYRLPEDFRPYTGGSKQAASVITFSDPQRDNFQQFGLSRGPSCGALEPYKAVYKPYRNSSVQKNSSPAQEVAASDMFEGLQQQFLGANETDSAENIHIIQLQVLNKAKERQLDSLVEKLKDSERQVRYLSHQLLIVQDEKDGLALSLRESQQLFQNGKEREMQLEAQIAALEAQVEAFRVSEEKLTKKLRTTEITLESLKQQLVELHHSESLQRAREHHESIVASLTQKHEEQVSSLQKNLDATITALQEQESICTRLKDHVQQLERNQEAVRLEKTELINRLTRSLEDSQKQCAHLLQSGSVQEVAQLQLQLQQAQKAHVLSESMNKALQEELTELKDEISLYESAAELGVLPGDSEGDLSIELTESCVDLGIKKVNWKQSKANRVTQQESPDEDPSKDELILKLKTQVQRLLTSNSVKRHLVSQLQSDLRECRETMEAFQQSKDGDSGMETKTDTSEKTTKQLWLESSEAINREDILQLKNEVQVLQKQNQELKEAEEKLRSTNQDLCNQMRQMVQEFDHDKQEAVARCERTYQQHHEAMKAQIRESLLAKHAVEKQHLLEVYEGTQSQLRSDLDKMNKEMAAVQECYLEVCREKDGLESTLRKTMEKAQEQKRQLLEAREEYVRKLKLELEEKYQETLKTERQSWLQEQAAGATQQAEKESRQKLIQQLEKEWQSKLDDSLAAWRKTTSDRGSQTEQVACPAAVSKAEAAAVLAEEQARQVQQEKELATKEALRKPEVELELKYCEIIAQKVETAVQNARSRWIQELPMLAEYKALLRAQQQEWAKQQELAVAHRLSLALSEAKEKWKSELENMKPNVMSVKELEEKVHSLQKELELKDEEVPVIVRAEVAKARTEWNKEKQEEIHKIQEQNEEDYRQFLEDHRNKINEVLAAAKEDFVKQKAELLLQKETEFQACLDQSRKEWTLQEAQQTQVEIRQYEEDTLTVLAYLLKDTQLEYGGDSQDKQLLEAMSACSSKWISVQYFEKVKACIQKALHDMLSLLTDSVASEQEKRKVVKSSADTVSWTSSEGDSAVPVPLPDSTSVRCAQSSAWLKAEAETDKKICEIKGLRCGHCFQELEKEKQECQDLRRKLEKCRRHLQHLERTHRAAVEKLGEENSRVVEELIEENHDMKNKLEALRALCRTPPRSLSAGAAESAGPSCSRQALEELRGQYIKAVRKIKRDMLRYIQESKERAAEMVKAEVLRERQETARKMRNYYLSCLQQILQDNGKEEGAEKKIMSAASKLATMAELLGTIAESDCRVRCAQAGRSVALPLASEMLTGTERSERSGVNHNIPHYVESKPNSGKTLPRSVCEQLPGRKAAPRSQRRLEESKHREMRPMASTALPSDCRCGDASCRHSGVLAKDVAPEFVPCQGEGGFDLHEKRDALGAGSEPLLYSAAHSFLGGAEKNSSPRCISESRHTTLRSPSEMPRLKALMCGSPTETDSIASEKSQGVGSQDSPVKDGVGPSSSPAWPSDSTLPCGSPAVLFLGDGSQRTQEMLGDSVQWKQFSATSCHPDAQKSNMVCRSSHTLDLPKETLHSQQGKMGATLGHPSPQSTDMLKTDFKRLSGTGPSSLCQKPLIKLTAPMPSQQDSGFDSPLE
UniProt Q04207: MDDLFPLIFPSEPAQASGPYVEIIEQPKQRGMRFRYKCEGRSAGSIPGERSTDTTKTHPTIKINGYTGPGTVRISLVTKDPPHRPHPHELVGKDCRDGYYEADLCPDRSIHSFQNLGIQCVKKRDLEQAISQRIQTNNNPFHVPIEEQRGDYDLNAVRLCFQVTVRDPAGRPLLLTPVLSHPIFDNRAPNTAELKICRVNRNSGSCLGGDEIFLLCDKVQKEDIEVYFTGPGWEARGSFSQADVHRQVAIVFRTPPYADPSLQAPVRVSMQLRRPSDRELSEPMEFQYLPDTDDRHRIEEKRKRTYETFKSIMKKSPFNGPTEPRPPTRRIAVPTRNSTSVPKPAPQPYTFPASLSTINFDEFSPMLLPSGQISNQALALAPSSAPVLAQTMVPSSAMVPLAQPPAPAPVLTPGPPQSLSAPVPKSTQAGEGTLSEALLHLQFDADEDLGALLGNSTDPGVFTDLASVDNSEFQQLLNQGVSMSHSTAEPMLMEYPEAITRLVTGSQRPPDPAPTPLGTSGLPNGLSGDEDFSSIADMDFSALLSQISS

B1: VPS37A (protein, UniProt Q8CHS8 1-397)
chain: MSWLFPLAKSASSSAAGSPAGLTSLQQQKQRLIESLRNSHSSIAEIQKDVEYRLPFTVNNLTININILLPPQFPQEKPVISVYPPIRHHLMDSQGLYVTSPLVSNFTMHSDLGKIIQSLLDEFWKNPPVLAPTSTTFPYLYSNPGGMPPYPSQGFPFLPPYPPPEANRNITSLSVADTVSSSTTSYTAAKPVAPSFGILSSLPLPVPTTESSASVNQNGFGYKMPDIPDAFPELSELSVSQLTDMNEQEEVLLEQFLMLPQLKQIITDKEDLVKNIEELARKNLLLEHSLEGKRQTVLDKYELLLQMKSTFEKKMQRQHELSESCSASALQARLKVAAHEAEEESDNIAEDFLEGKTEIDDFLNSFKEKRTICHCRRAKEEKLHQVIAMHSQFHAPL
B2: SH3RF1 (protein, UniProt Q69ZI1 1-892)
chain: MDESALLDLLECPVCLERLDASAKVLPCQHTFCKRCLLGIVGSRNELRCPECRTLVGSGVDELPSNILLVRLLDGIKQRPWKPGPGGGGGTTCTNTLRAQGSTVVNCGSKDLQSSQCGQQPRVQAWSPPVRGIPQLPCAKALYNYEGKEPGDLKFSKGDIIILRRQVDENWYHGEVSGVHGFFPTNFVQIIKPLPQPPPQCKALYDFEVKDKEADKDCLPFAKDDVLTVIRRVDENWAEGMLADKIGIFPISYVEFNSAAKQLIEWDKPPVPGVDTAECPSATAQSTSASKHPDTKKNTRKRHSFTSLTMANKSSQGSQNRHSMEISPPVLISSSNPTAAARISELSGLSCSAPSQVHISTTGLIVTPPPSSPVTTGPAFTFPSDVPYQAALGSMNPPLPPPPLLAATVLASTPSGATAAVAAAAAAAAAAGMGPRPVMGSSEQIAHLRPQTRPSVYVAIYPYTPRKEDELELRKGEMFLVFERCQDGWYKGTSMHTSKIGVFPGNYVAPVTRAVTNASQAKVSMSTAGQASRGVTMVSPSTAGGPTQKPQGNGVAGNPSVVPTAVVSAAHIQTSPQAKVLLHMSGQMTVNQARNAVRTVAAHSQERPTAAVTPIQVQNAACLGPASVGLPHHSLASQPLPPMAGPAAHGAAVSISRTNAPMACAAGASLASPNMTSAMLETEPSGRTVTILPGLPTSPESAASACGNSSAGKPDKDSKKEKKGLLKLLSGASTKRKPRVSPPASPTLDVELGAGEAPLQGAVGPELPLGGSHGRVGSCPTDGDGPVAAGTAALAQDAFHRKTSSLDSAVPIAPPPRQACSSLGPVMNEARPVVCERHRVVVSYPPQSEAELELKEGDIVFVHKKREDGWFKGTLQRNGKTGLFPGSFVENI

Biological target: NPHP3-BioID2-RAD23B (aa185-409) (human) (UniProt Q7Z494)
Assay: proximity labelling; NPHP3-BioID2-RAD23B (aa185-409) stably expressed in IMCD3 Flp-In cells, starvation medium 48 h, 10 uM biotin for the last 24 h; RIPA lysis, StrepTactin Superflow beads 3 h at 4°C, on-bead trypsin digestion, label-free MS; enrichment against the NPHP3-BioID2 control line; 6 replicates per cell line

binding, binds:
ITSN1 (from UniProt Q9Z0R4 1-1714)
NOTCH2 (from UniProt O35516 26-2473) (receptor)
ITSN2 (from UniProt Q9Z0R6 1-1659)
NEDD1 (from UniProt P33215 1-660)
STAM2 (from UniProt O88811 1-523)
PIK3C2A (from UniProt Q61194 1-1686) (enzyme)
NOTCH1 (from UniProt Q01705 19-2531) (receptor)
C2CD3 (from UniProt Q52KB6 1-2323)
TOM1 (from UniProt O88746 1-492)
CEP152 (from UniProt A2AUM9 1-1736)
TNRC6B (from UniProt Q8BKI2 1-1810)
AMER1 (from UniProt Q7TS75 1-1132)
RELA (from UniProt Q04207 1-549)
CEP350 (from UniProt E9Q309 1-3095)
B1
B2

These are yes or no findings as the source states them, for the method shown. In cells and extracts the contact can be indirect. These calls come from enrichment with a bait or labelling near it, and not all partners need be listed.
